These results are taken from publication PMC7237762 (Frontiers in Chemistry, 2020).

The nature of this data set: general procedure: solution-phase peptide synthesis; HATU/HOAt/DIPEA. Conditions: for step yield: coupling step.

In turn, Kakeromamide A had a cyclisation yield (cyclisation step, on linear pentapeptide 2) of 40% for 3 steps. For the setting “whole synthesis, overall from thioamide 12”, this substance gave an isolated yield of 14%.

The substance pentapeptide 2 displayed a step yield of 71% for 2 steps. Same read-out and setting: next, tetrapeptide 15: 83% for 2 steps.
